In patent publication EP4341264B1, “PYRROLOPIRIMIDINE DERIVATIVES AND THEIR USE IN THE TREATMENT OF LEISHMANIASIS” (Drugs for Neglected Diseases Initiative, priority 2021, dated 2022) one finds SI data, which are given here for three compounds.

Data set [1] deals with L. infantum (MHOM/MA/67/ITMAP263). The data set is described as follows: Intracellular amastigote susceptibility assay (primary peritoneal mouse macrophages). To be noted: selectivity index (CC50/IC50). Type of data set: cell-based. As for the experimental part:
(§1) To obtain primary peritoneal macrophages, Swiss mice were stimulated by intraperitoneal injection of 1 mL 2% starch in PBS 48 h prior to cell collection. Animals were euthanized with a CO2 overdose and upon removal of the skin, 10 mL of RPMI-1640 (Life Technologies) was injected into the peritoneal cavity to collect the macrophages that were then seeded into 96-well plates at a final concentration of 30,000 cells/well in 100 µL of RPMI-1640 macrophage medium, supplemented with 5% iFCS, 2% penicillin/streptomycin and 1% L-glutamine (Life technologies). After 24 h, the cells were infected with spleen derived L. infantum (MHOM/MA(BE)/67/ITMAP263) or L. donovani (MHOM/ET/67/L82) amastigotes obtained from heavily infected donor hamsters. The amastigotes were purified using two centrifugation steps and diluted to obtain an infection ratio of 5:1 in RPMI-1640 cell culture medium. After incubation for 2 h, compound dilutions were added. Drug activity was evaluated after a 96-h incubation period without washing of the cells and without renewal of the drugged culture medium. Cells were stained with Giemsa for microscopic evaluation of cellular amastigote burdens. Percentage reduction compared to the burdens in the infected non-treated control wells was used as a measure for drug activity.

The test system of data set [2] is L. donovani (MHOM/ET/67/L82). The data set is described as above. Type of data set: cell-based. The following applies: selectivity index (CC50/IC50). As to the method: as §1

Each structure is given as a SMILES string.

In the case of `COc1cc(C#N)ccc1-c1c(C)[nH]c2nc(N)nc(C)c12` [Compound C1, 4-(2-amino-4,6-dimethyl-7H-pyrrolo[2,3-d]pyrimidin-5-yl)-3-methoxybenzonitrile], the SI in data set [1] is listed as above 74; in data set [2] it was above 63.

For `COc1nc(OCC(F)(F)F)cnc1-c1c(C)[nH]c2nc(N)nc(C)c12` [Compound C3, 5-[3-methoxy-5-(2,2,2-trifluoroethoxy)pyrazin-2-yl]-4,6-dimethyl-7H-pyrrolo[2,3-d]pyrimidin-2-amine], the values for the SI in data set [1] and in data set [2] were above 40 and above 51, respectively.

`Cc1[nH]c2nc(N)nc(C)c2c1-c1ccc(C#N)c2c1OCO2` [Compound C4, 7-(2-amino-4,6-dimethyl-7H-pyrrolo[2,3-d]pyrimidin-5-yl)-1,3-benzodioxole-4-carbonitrile]: the values for the SI in data set [1] and in data set [2] were above 417 and above 360, respectively.
